Earlier results in patent publication US10258617B2, “Dosing regimens for fast onset of antidepressant effect” (H. Lundbeck A/S, priority 2016, dated 2019).
At least one read-out could not be matched to a standard name with certainty.

Conditions: oral vs IV; cited from earlier work

Structure (SMILES): Cc1ccc(Sc2ccccc2N2CCNCC2)c(C)c1 [Vortioxetine, 1-[2-(2,4-dimethyl-phenylsulfanyl)-phenyl]piperazine]
- bioavailability after oral administration relative to IV administration: 75%
